The source of these data is patent US20170320960A1.

First the molecules themselves.
B1: SC57.5 (antibody, V domains shown)
VH: EVQLQQSGPELVKPGASVKISCKASGYSFTDYYLHWVKQSHVKSLEWIGRINPYNGATSYNQIFKDKASLTVDKSSSTAYMDLHSLTSEDSAVYYCARGGDYDFPWYWGQGTTLTVSP
VL: DIVMTQSHKFMSTSVGDRVSITCKASQDVYAAVAWYHQKPGQSPKLLIYWASTRHAGVPDRFTGSGSGTDYTLTISSVQAEDLALYYCQQHYRTPWTFGGGTKLEIK
B2: SC57.46 (antibody, V domains shown)
VH: QVQLKESGPGLVAPSQSLSITCTVSGFSLTSYGVHWVRQPPGKGLEWLGIIWAGGTTNYNSALMSRLSIRKDNSKSQVFLKMNSLQTDDTAMYYCARDRGYDGYFDYAVDYWGQGTSVTVSS
VL: DIQMTQSPPSLSASVGETVTITCRTSENIYSYLTWYQQKQGKSPQLLVYNAKTLAEGVPSRFSGSGSGTQFSLKINSLQPEDFGSYYCQHHYGTPLTFGAGTKLELK
B3: SC57.9 (antibody, V domains shown)
VH: QVQLQQSGPELMKPGASVKISCKATGYTFSSYWIEWVKQRPGHGLEWIGEILPGSGSTEYNEKFKGKATFTADTSSNTAYMQLSSLTSEDSDVYYCARKRYGTMDYWGQGTSVTVSS
VL: QIVLTQSPAIMSASPGEKVTITCSASSSVSYMHWFQQKPGTSPKLWIYTTSNLASGVPARFSGSGSGTSYSLTISRMEAEDAATYYCQQRSSFPPTFGSGTKLEIK
B4: SC57.1 (antibody, V domains shown)
VH: QVQLKQSGPGLVQPSQSLSITCTVSGFSLTDYGVHWVRQSPGKGLDWLGVIWSGGNTDYNAAFISRLSISKDNSKSQIFFEMNSLQDTDTAIYYCARQLHYYGPFAYWGQGTLVTVSA
VL: QIVLTQSPAIMSASPGEKVTMTCSASSSVSYMHWYQQKSGTSPKRWIYDTSKLASGVPVRFSGSGSGTSYSLTISSIEADDAATYYCQQWSRTPPTFGGGTKLEIK
B5: SC57.2 (antibody, V domains shown)
VH: B4 VH
VL: B4 VL
B6: SC57.17 (antibody, V domains shown)
VH: EVQLQQSGAELVKPGASVKLSCTASGFNIKDTYMHWVKQRPEQGLEWIGRIDPANVNTSDDPKFQGKATIAADTSSNTVYLQLSSLTSEDTAVYYCARDYRYDGYYYAMDYWGQGTSVTVSS
VL: DIQMTQTTSSLSASLGDRVTISCSASQDINNYLNWYQQKPDGTVKLLIHYTSSLHSGVPSRFSGSGSGTDYSLTISNLEPEDIATYYCQQYSKVPWTFGGGTKLEIK
B7: SC57.31 (antibody, V domains shown)
VH: QVHLKESGPGLVAPSQSLSITCTVSGFSLTTYGVHWVRQPPGKGLEWLGVIWAGGSTKYNSAFMSRLSISKDNSKTQVLLKMNSLQTDDTAMYYCARVASHGSSSWFAYWGQGTLVTVSA
VL: DIVLTQSPATLSVTPGDSVSLSCRASQSVGNSLHWYQQKSHESPRLLIKYASQSISGIPSRFSGSGSGTDFTLSINSVETEDFGMYFCQQSDSWPLTFGTGTKLELK
B8: SC57.53 (antibody, V domains shown)
VH: B7 VH
VL: B7 VL
B9: SC57.57 (antibody, V domains shown)
VH: B7 VH
VL: B7 VL
B10: SC57.6 (antibody, V domains shown)
VH: GVQVVESGGGVVQPGGSLKLSCAASGFTFSSYAMSWVRQTPEKRLEWVAYLSRGGGSTYYLDTVKGRFTISRDNAKNTLYLQMNSLKSEDTAMYYCARLDGYNWYFDVWGAGTPVTVSS
VL: DIVMSQSPSSLAVSAGEKVTMSCKSSQSLLHSRIRKNYLAWYQQKPGQSPKLLIYWASTRESGVPDRFTGSGSGTDFTLTISSVQAEDLAVYYCKQSYNLFTFGGGTKLEIK
B11: SC57.7 (antibody, V domains shown)
VH: B10 VH
VL: B10 VL
B12: SC57.48 (antibody, V domains shown)
VH: B10 VH
VL: B10 VL
B13: SC57.27 (antibody, V domains shown)
VH: ELKLVESGGDLVKPGGSLKLSCAASGFSFNNYAMSWVRQTPEKRLEWVASISSGGTTFYPDSVKGRFTMSRDHARNILYLQMNSLRSEDTAMYYCVRGQWLSLYSMDYWGQGTSVTVSS
VL: B2 VL with P9V, T25A, N28I, T34A, S85T, T94V, L96V

Substitutions are numbered along the chain they refer to. These are yes or no findings as the source states them, for the method shown. For some of these results: Binding calls can cover weak binding; strength is not graded here.

For the first test, the target named is rMFI2-His (extracellular domain of rat MFI2 with Histidine tag) (rat). The experiment in a line: bio-layer interferometry (ForteBio RED): antibody on anti-mouse Fc sensor, 300 nM rMFI2-His.
Turning to B1, the binding result is on record as “binds”.
Same read-out and setting: in the case of B2 it was “binds”.

The next test has the same target. The experiment in a line: bio-layer interferometry (ForteBio RED): antibody on anti-mouse Fc sensor, rMFI2-His in solution.
B3: the binding result is “no binding (tested: 300 nM)”.
Same read-out and setting: in the case of B4 it was “no binding (tested: 300 nM)”.
Still for that read-out and setting: as for B5, the entry is “no binding (tested: 300 nM)”; as for B6, “no binding (tested: 300 nM)”; as for B7, “no binding (tested: 300 nM)”.
Same read-out and setting: in the case of B8 it was “no binding (tested: 300 nM)”.
Take B9: the binding result is recorded as “no binding (tested: 300 nM)”.
Same read-out and setting: in the case of B10 it was “no binding (tested: 300 nM)”.
The same measure, in the same setting: in the case of B11 it was “no binding (tested: 300 nM)”.
On the same count and under the same terms, as for B12, the entry is “no binding (tested: 300 nM)”; as for B13, “no binding (tested: 300 nM)”.
